Source: US20210309747A1
Results are given in words; binding and its absence hold for the method and conditions named. Some binding calls cover weakened binding; strength is not graded here.

Sequences of proteins named here, by UniProt entry; tags and fusion partners are left off. A change or cut given only in a name is not applied to a line headed by its entry.
UniProt Q9NZQ7: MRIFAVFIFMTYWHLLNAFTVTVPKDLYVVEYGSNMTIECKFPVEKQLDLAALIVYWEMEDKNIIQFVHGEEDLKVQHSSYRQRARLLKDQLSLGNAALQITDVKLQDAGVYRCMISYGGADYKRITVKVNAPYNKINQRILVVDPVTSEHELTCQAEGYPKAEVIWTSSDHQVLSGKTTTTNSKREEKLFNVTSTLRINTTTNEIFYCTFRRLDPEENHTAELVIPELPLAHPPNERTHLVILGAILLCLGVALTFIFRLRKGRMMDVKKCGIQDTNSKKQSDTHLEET

B1: B15 (antibody, V domains shown)
VH: EVQLLESGGGLVKPGGSLRLSCSASGFTFSVYYMAWIRQAPGEGLEWISYTSNGDGDITYYADSVKDRFTISRDNAKNSLLLQMNSLRDEDTAVYYCVRAARSGYYNDYWGQGTLVTVSA
VL: DIQLTQSPSSLSASVGDRVTMTCRASQFISKYVNWYQQKPGKAPKVLIYGASILETGVPSRFSGSGFGTDFTFTISSLQPEDFATYYCQQTHSTPRGVFGQGTRVEVK
B2: B12-01 (antibody, V domains shown)
VH: QVQLLESGGGLVQPGGSLRLSCAASGFTFSSYWMSWVRQAPGKGLEWVANIKQDGSEKYYVDSVKGRFTISRDNAKNSLYLQMNSLRAEDTAVYYCARVALWDDAFDIWGQGTMVTVSS
VL: DIQMTQSPSTLSASVGDRVIITCRASRGISSWLAWYQQKPGKAPNLLISKASSLESGVPSRFSGSGSGTDFTLTISSLQPEDFATYYCQQSSSIPLTFGGGTKVEIK

Legend:
[1] = target: recombinant human PD-L1 (Sino Biological, Cat#: 10084-H08H) (human) (UniProt Q9NZQ7); test: ELISA, human PD-L1 coated at 1 µg/ml, full-length IgG
cyno PDL1-His (cyno) [2] = target: cyno PDL1-His (cyno) (UniProt G7PSE7); test: ELISA (FIG. 7)
cyno PDL1-His (cyno) [3] = target: cyno PDL1-His (cyno) (UniProt G7PSE7); test: ELISA (Example 7)
cyno PDL1-His (cyno) [4] = target: cyno PDL1-His (cyno) (UniProt G7PSE7); test: ELISA, PDL1-His coated at 0.5 µg/ml

Binder	binding [1]	binding (cyno PDL1-His (cyno) [2])	binding (cyno PDL1-His (cyno) [3])	binding (cyno PDL1-His (cyno) [4])
B1	binds			
B2		binds	binds	binds
